Data published in patent US20030082190A1.
No constants are given. Whether binding was seen depends on the method and setting. Some entries that bind do so weakly or less than the wild type. Sequences can lack the tags named with a protein.

Amino acid sequences for entries named in this document (tags omitted). Residues count along the entry.
UniProt P12319, residues 26-257: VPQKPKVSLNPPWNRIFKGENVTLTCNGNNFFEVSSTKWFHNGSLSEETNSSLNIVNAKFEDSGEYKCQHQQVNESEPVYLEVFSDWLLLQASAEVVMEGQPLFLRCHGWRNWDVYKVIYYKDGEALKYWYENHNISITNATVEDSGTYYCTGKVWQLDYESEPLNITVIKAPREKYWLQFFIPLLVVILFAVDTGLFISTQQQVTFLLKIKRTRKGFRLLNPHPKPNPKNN
UniProt P31994, residues 43-310: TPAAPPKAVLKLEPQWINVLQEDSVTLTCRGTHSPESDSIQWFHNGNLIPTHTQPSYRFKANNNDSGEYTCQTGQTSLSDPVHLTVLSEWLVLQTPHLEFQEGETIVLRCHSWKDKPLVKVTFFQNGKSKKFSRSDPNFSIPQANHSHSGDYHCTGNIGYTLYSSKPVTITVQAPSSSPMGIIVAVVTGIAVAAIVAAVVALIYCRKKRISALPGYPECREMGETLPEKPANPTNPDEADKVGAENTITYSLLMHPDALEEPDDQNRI

What was measured:
[1] = biological target: high-affinity IgE receptor FcεRI expressed on transfected CHO 3D10 cells (UniProt P12319); assay: flow cytometry on FcεRI transfected CHO 3D10 cells, FITC anti-human IgE or IgG detection
[2] = biological target: human FcγRII (FcγRIIb) expressed on HMC-1 cells (human) (UniProt P31994); assay: flow cytometry on HMC-1 cells
[3] = biological target: high-affinity IgE receptor FcεRI expressed on transfected CHO 3D10 cells (UniProt P12319); assay: flow cytometry on CHO 3D10 cells
[4] = biological target: human FcγRII (FcγRIIb) expressed on HMC-1 cells (human) (UniProt P31994); assay: flow cytometry on HMC-1 cells, FITC anti-human IgE or IgG detection

- binding [1]: binds
- binding [2]: binds
- binding [3]: binds
- binding [4]: binds
B1: γhinge-CHγ2-CHγ3-(Gly4Ser)3-CHε2-CHε3-CHε4 fusion molecule (GE2) (Fc fusion)
chain: EPKSCDKTHTCPPCPAPELLGGPSVFLFPPKPKDTLMISRTPEVTCVVVDVSHEDPEVKFNWYVDGVEVHNVKTKPREEQYNSTYRVVSVLTVLHQNWMNGKEYKCKVSNKALPAPIEKTISKAKVQPREPQVYTLPPSRDELTKNQVSLTCLVKGFYPSDIAVEWESNGQPENNYKTTPPVLDSVGSFFLYSKLTVDKSRWQQGNVFSCSVMHEALHNHYQQRSLSLSPGKVEGGGGSGGGGSGGGGSFTPPTVKILQSSCDGGGHFPPTIQLLCLVSGYTPGTINITWLEDGQVMDVDLSTASTTQEGELASTQSELTLSQKHWLSDRTYTCQVTYQGHTFEDSTKKCADSNPRGVSAYLSRPSPFDLFIRKSPTITCLVVDLAPSKGTVNLTWSRASGKPVNHSTRKEEKQRNGTLTVTSTLPVGTRDWIEGETYQCRVTHPHLPRALMRSTTKTSGPRAAPEVYAFATPEWPGSRDKRTLACLIQNFMPEDISVQWLHNEVQLPDARHSTTQPRKTKGSGFFVFSRLEVTRAEWEQKDEFICRAVHEAASPSQTVQRAVSVNPGK
